Experimental data: patent US20250009795A1
These are yes or no findings as the source states them, for the method shown. Some binding calls cover weakened binding; strength is not graded here.

Tests used:
[1] = molecular target: EGFRviii on U87-EGFRviii cells (UniProt P00533); assay: flow cytometry: U87-EGFRviii cells, 1, 10, 100 µg/ml antibody at 4 °C, anti-Fc Alexa-647 secondary
[2] = molecular target: EGFRviii on U87-EGFRviii cells (UniProt P00533); assay: flow cytometry on U87-EGFRviii cells, 1, 10, 100 ug/ml antibody, anti-Fc Alexa-647 secondary
[3] = molecular target: EGFRviii on U87-EGFRviii cells (UniProt P00533); assay: flow cytometry, U87-EGFRviii cells, 1, 10 or 100 ug/ml antibody, anti-Fc Alexa-647 secondary
[4] = molecular target: EGFR domain IV (immobilized on CM5 chip) (human) (UniProt P00533); assay: SPR, EGFR domain IV immobilized on CM5 chip at 500 RU, IgG injected at 30, 10 and 3 nM, 25 C
[5] = molecular target: EGFR domain IV (immobilized on CM5 chip) (human) (UniProt P00533); assay: SPR: EGFR domain IV immobilized on CM5 chip (500 RU), IgG at 30, 10, 3 nM, 25 °C
EGFR-His [6] = molecular target: EGFR-His (UniProt P00533); assay: ELISA: recombinant proteins coated, purified 5C8 mAb, OD450
EGFR-His [7] = molecular target: EGFR-His (UniProt P00533); assay: ELISA with various recombinant proteins

Binder | binding [4] | binding [5] | also measured
chimeric anti-domain IV EGFR antibody clone 5C8 (EGFRD4-5C8) (antibody, V domains shown) VH: EVQLQQSGPELVKTGASVKISCKASGYSFTGYYMHWVKQSHGKSLEWIGYINCYNGAINYNQKFKGKATFTVDTSSSTVYMQFNSLTSEDSAVYYCVRAGIHYDYDEAWFAYWGQGTLVTVSA VL: QAVVTQESALTTSPGETVTLTCRSSTGPVIIRNYANWVQEKPDHLFTGLIGGTNNRAPGVPARFSGSLIGDKAALTITGAQTEDEAIYFCALWYNNHWVFGGGTKLTVL | – | – | binding [1]: binds; binding [2]: binds; binding [3]: binds
EGFRD4-28Ab (antibody, V domains shown) VH: EVQLQQSGPELVKPGASVKISCKASGYSFTGYYMHWVKQSHVKSLEWIGRINPYNGATIYNQNFKDKASLTVDKSSSTAYMELHSLTSEDSAVYYCARDDYEGAMDYWGQGTSVTVSS VL: NIMMTQLPSSLAVSAGEKVTMSCKSSQSVLYISNQKNYLAWFQQKPGQSPKLLIYWASTRESGVPDRFTGSGSGTDFTLTISSVQAEDLAVYYCHQYFSSYTFGGGTKLEIK | binds | binds | –
EGFRD4-30Ab (antibody, V domains shown) VH: DVQLQESGPDLVKPSQSLSLTCTVTGYSITSGDSWHWIRQFPGNKLEWMGYIHYSGSTKYNPSLKSRISITRDTSKNQFFLQLNSVTTEDTATYYCASWFYYAMDYWGQGTSVTVSS VL: ENVLTQSPAIMSASPGEKVTMTCRASSSVSSSYLHWFQQKSGASPKLWIYSTSNLASGVPARFSGSGSGTSYSLTISSVEAEDAATYYCQQYSGFPLTFGAGTKLELK | binds | binds | –
EGFRD4-34Ab (antibody, V domains shown) VH: QIQLVQSGPELKKPGETVKISCKASGYTFTNYGMNWVKQAPGKGLKWMGWINTYTGDPTYADDFKGRFAFSLETSASTAYLQINNLKNEDMATYFCARRISTMITTWFAYWGQGTLVTVSA VL: DIQMTQSPASLSASVGETVTITCRASENIYSYLAWFQQRQGKSPQLLVYNAKTLTEGVPSRFSGSGSGTQFSLKINSLQPEDFGSYYCQHYQVTPYTFGGGTKLEIK | binds | binds | –
hybridoma clone 5C8 (mouse antibody, culture supernatant) (antibody, V domains shown) VH: EVQLQQSGPELVKTGASVKISCKASGYSFTGYYMHWVKQSHGKSLEWIGYINCYNGAINYNQKFKGKATFTVDTSSSTVYMQFNSLTSEDSAVYYCVRAGIHYDYDEAWFAYWGQGTLVTVSA VL: QAVVTQESALTTSPGETVTLTCRSSTGPVIIRNYANWVQEKPDHLFTGLIGGTNNRAPGVPARFSGSLIGDKAALTITGAQTEDEAIYFCALWYNNHWVFGGGTKLTVL | – | – | binding (EGFR-His [6]): binds; binding (EGFR-His [7]): binds
